Experimental data: publication PMC7648202
Results are given in words; binding and its absence hold for the method and conditions named. Some binding calls cover weakened binding; strength is not graded here. Sequences can lack the tags named with a protein.

Target: T1, mature TCMP‐2 protein fused to the GAL4 DNA‐binding domain (pGBKT7‐BD) (tomato (Solanum lycopersicum)) (UniProt P14903)
T1 sequence: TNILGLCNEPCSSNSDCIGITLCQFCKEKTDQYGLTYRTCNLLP
Experiment: two-hybrid; Matchmaker Gold system; bait GAL4 BD fusion in Y2H Gold, prey AD fusions in Y187, mated; 30°C for 3 days; selection on SD/-Leu/-Trp/-His/-Ade/X-Gal/Aureobasidin A plus 10 mM 3-AT

- binding: binds
B1: AtmiP1b full‐length ORF fused to the Gal4‐activation domain (pGADT7‐AD) (protein, UniProt Q9LRM4 1-121)
chain: MCRGLNNEESRRSDGGGCRSLCTRPSVPVRCELCDGDASVFCEADSAFLCRKCDRWVHGANFLAWRHVRRVLCTSCQKLTRRCLVGDHDFHVVLPSVTTVGETTVENRSEQDNHEVPFVFL
